# According to the supplement of paper PMC12542422:
# Structures can show the parent of a compound that is named as a salt. ± gives the standard deviation of the averaged measurements. This is one part of the list. These are raw signals, not scaled to a control.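 Across three biological replicates, HeLa cells were imaged for ribosome assembly using ENP1 staining (export block present or absent) or inducible tagged ribosomal protein reporters. Machine learning classified each cell's signal localization relative to DMSO controls. Hits exceeded the DMSO false-positive mean by five standard deviations and were then visually confirmed.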
# System: HeLa K (ENP1 immunofluorescence, +LMB)
# Experiment: fraction of cells with nucleolar or nucleolar/nucleoplasmic ENP1 signal (MainHitrate); higher = more cells with nucleolar/nuclear readout signal (for ENP1 -LMB: less RNAPI inhibition; for +LMB ENP1 and RP reporters: stronger nuclear/nucleolar retention, i.e. ribosome biogenesis defect)
# Details: concentration: 1 µM; treatment time: 6 h; ENP1 +LMB; leptomycin B: 20 nM, last 1.5 h
row,Compound,fraction
1,CN1[C@@H]2CC[C@H]1C[C@@H](OC(=O)[C@H](CO)c1ccccc1)C2 [Hyoscyamine (Daturine)],0.0527 ± 0.069
2,CC[N+]1(C)CCCC(OC(=O)C(O)(c2ccccc2)c2ccccc2)C1 (stereo unspecified) [Pipenzolate Bromide],0.172 ± 0.24
3,CC[C@H]1CN2CCc3cc(OC)c(OC)cc3[C@@H]2C[C@@H]1C[C@H]1NCCc2cc(OC)c(OC)cc21 [Emetine],0.987 ± 0.011
4,COc1cc2c(cc1OC)[C@@]13CCN4CC5=CCO[C@H]6CC(=O)N2[C@H]1[C@H]6[C@H]5C[C@H]43 [Brucine],0.141 ± 0.16
5,CCCN1C[C@H](CSC)C[C@@H]2c3cccc4[nH]cc(c34)C[C@H]21 [Pergolide mesylate],0.0838 ± 0.12
6,C#C[C@]1(O)C=C[C@H]2[C@@H]3CCC4=CC(=O)CC[C@@H]4[C@H]3CC[C@@]21CC [Gestodene],0.0879 ± 0.086
7,C/C=C(\C)C(=O)N[C@@H](c1ccccc1)[C@@H](O)C(=O)O[C@H]1C[C@@]2(O)[C@@H](OC(=O)c3ccccc3)[C@@H]3[C@]4(OC(C)=O)CO[C@@H]4C[C@H](O)[C@@]3(C)C(=O)[C@H](OC(C)=O)C(=C1C)C2(C)C [Cephalomannine],0.14 ± 0.21
8,CC(C)N(CCC(C(N)=O)(c1ccccc1)c1ccccn1)C(C)C (stereo unspecified) [Disopyramide Phosphate],0.123 ± 0.18
9,Cc1cccc(C)c1NC1=NCCCS1 [Xylazine HCl],0.109 ± 0.15
10,Cc1cc(O)ccc1Cl [Chlorocresol],0.11 ± 0.16
11,C=CC[C@]1(O)CC[C@H]2[C@@H]3CCC4=CC(=O)CCC4=C3C=C[C@@]21C [Altrenogest],0.0804 ± 0.1
12,C[N+](C)(C)CCCCCCCCCC[N+](C)(C)C [Decamethonium bromide],0.0625 ± 0.076
13,C[C@]12CC[C@H](O)CC1=CC[C@@H]1[C@@H]2CC[C@]2(C)C(=O)CC[C@@H]12 [Dehydroepiandrosterone (DHEA)],0.0467 ± 0.052
14,NCC1(CC(=O)O)CCCCC1 [Gabapentin Hydrochloride],0.0763 ± 0.052
15,CC(C)=CC1C(C(=O)OCc2cccc(Oc3ccccc3)c2)C1(C)C (stereo unspecified) [Phenothrin],0.117 ± 0.11
16,C#C[C@]1(O)CC[C@H]2[C@@H]3CCC4=CC(=O)CC[C@]4(C)[C@H]3CC[C@@]21C [Ethisterone],0.0804 ± 0.11
17,C[C@]12CC[C@H]3[C@@H](CC[C@@]45O[C@@H]4C(O)=C(C#N)C[C@]35C)[C@@H]1CC[C@@H]2O [Trilostane],0.0833 ± 0.057
18,CN(C)C(=O)Oc1ccc[n+](C)c1 [Pyridostigmine Bromide (Mestinon)],0.0771 ± 0.071
19,COc1ccc(OC)c(C(O)C(C)N)c1 (stereo unspecified) [Methoxamine HCl],0.141 ± 0.15
20,C=CCN1CC[C@]23c4c5ccc(O)c4O[C@H]2C(=O)CC[C@@]3(O)[C@H]1C5 [Naloxone HCl],0.0594 ± 0.089
21,CCC1(c2cccc(O)c2)CCCCN(C)C1 (stereo unspecified) [Meptazinol HCl],0.0816 ± 0.1
22,CN1CCc2cc3c(cc2C1O)OCO3 (stereo unspecified) [Hydrastinine HCl],0.185 ± 0.23
23,OC(c1ccccc1)(c1ccccc1)C1CCNCC1 [Azacyclonol],0.0608 ± 0.074
24,CN1C(=O)CCS(=O)(=O)C1c1ccc(Cl)cc1 (stereo unspecified) [Chlormezanone (Trancopal)],0.149 ± 0.22
25,C[C@]12C/C(=C/O)C(=O)C[C@@H]1CC[C@@H]1[C@@H]2CC[C@@]2(C)[C@H]1CC[C@]2(C)O [Oxymetholone],0.0388 ± 0.038
26,CN1[C@@H]2C[C@@H](OC(=O)[C@H](CO)c3ccccc3)C[C@H]1[C@@H]1O[C@@H]12 [Scopolamine hydrobromide],0.11 ± 0.15
27,CC(O)(CS(=O)(=O)c1ccc(F)cc1)C(=O)Nc1ccc(C#N)c(C(F)(F)F)c1 (stereo unspecified) [Bicalutamide (Casodex)],0.0514 ± 0.036
28,C[N+]1(C)CCCC(OC(=O)C(O)(c2ccccc2)c2ccccc2)C1 (stereo unspecified) [Mepenzolate Bromide],0.107 ± 0.12

# System: HeLa K (ENP1 immunofluorescence, no LMB)
# Experiment: as above
# Details: concentration: 1 µM; treatment time: 6 h; ENP1 -LMB; leptomycin B: none
row,Compound,fraction
1,CN1[C@@H]2CC[C@H]1C[C@@H](OC(=O)[C@H](CO)c1ccccc1)C2 [Hyoscyamine (Daturine)],0.9946 ± 0.0094
2,CC[N+]1(C)CCCC(OC(=O)C(O)(c2ccccc2)c2ccccc2)C1 (stereo unspecified) [Pipenzolate Bromide],0.9964 ± 0.0063
3,CC[C@H]1CN2CCc3cc(OC)c(OC)cc3[C@@H]2C[C@@H]1C[C@H]1NCCc2cc(OC)c(OC)cc21 [Emetine],0.9968 ± 0.0055
4,COc1cc2c(cc1OC)[C@@]13CCN4CC5=CCO[C@H]6CC(=O)N2[C@H]1[C@H]6[C@H]5C[C@H]43 [Brucine],0.9964 ± 0.0062
5,CCCN1C[C@H](CSC)C[C@@H]2c3cccc4[nH]cc(c34)C[C@H]21 [Pergolide mesylate],0.981 ± 0.033
6,C#C[C@]1(O)C=C[C@H]2[C@@H]3CCC4=CC(=O)CC[C@@H]4[C@H]3CC[C@@]21CC [Gestodene],0.9985 ± 0.0027
7,C/C=C(\C)C(=O)N[C@@H](c1ccccc1)[C@@H](O)C(=O)O[C@H]1C[C@@]2(O)[C@@H](OC(=O)c3ccccc3)[C@@H]3[C@]4(OC(C)=O)CO[C@@H]4C[C@H](O)[C@@]3(C)C(=O)[C@H](OC(C)=O)C(=C1C)C2(C)C [Cephalomannine],0.969 ± 0.053
8,CC(C)N(CCC(C(N)=O)(c1ccccc1)c1ccccn1)C(C)C (stereo unspecified) [Disopyramide Phosphate],0.9965 ± 0.0061
9,Cc1cccc(C)c1NC1=NCCCS1 [Xylazine HCl],0.9951 ± 0.0084
10,Cc1cc(O)ccc1Cl [Chlorocresol],0.985 ± 0.025
11,C=CC[C@]1(O)CC[C@H]2[C@@H]3CCC4=CC(=O)CCC4=C3C=C[C@@]21C [Altrenogest],0.99 ± 0.018
12,C[N+](C)(C)CCCCCCCCCC[N+](C)(C)C [Decamethonium bromide],0.985 ± 0.026
13,C[C@]12CC[C@H](O)CC1=CC[C@@H]1[C@@H]2CC[C@]2(C)C(=O)CC[C@@H]12 [Dehydroepiandrosterone (DHEA)],0.985 ± 0.026
14,NCC1(CC(=O)O)CCCCC1 [Gabapentin Hydrochloride],0.9974 ± 0.0045
15,CC(C)=CC1C(C(=O)OCc2cccc(Oc3ccccc3)c2)C1(C)C (stereo unspecified) [Phenothrin],0.996 ± 0.0069
16,C#C[C@]1(O)CC[C@H]2[C@@H]3CCC4=CC(=O)CC[C@]4(C)[C@H]3CC[C@@]21C [Ethisterone],0.989 ± 0.019
17,C[C@]12CC[C@H]3[C@@H](CC[C@@]45O[C@@H]4C(O)=C(C#N)C[C@]35C)[C@@H]1CC[C@@H]2O [Trilostane],0.9988 ± 0.002
18,CN(C)C(=O)Oc1ccc[n+](C)c1 [Pyridostigmine Bromide (Mestinon)],0.9984 ± 0.0027
19,COc1ccc(OC)c(C(O)C(C)N)c1 (stereo unspecified) [Methoxamine HCl],0.9964 ± 0.0063
20,C=CCN1CC[C@]23c4c5ccc(O)c4O[C@H]2C(=O)CC[C@@]3(O)[C@H]1C5 [Naloxone HCl],0.984 ± 0.028
21,CCC1(c2cccc(O)c2)CCCCN(C)C1 (stereo unspecified) [Meptazinol HCl],0.994 ± 0.011
22,CN1CCc2cc3c(cc2C1O)OCO3 (stereo unspecified) [Hydrastinine HCl],0.9985 ± 0.0026
23,OC(c1ccccc1)(c1ccccc1)C1CCNCC1 [Azacyclonol],0.983 ± 0.03
24,CN1C(=O)CCS(=O)(=O)C1c1ccc(Cl)cc1 (stereo unspecified) [Chlormezanone (Trancopal)],0.989 ± 0.019
25,C[C@]12C/C(=C/O)C(=O)C[C@@H]1CC[C@@H]1[C@@H]2CC[C@@]2(C)[C@H]1CC[C@]2(C)O [Oxymetholone],0.979 ± 0.037
26,CN1[C@@H]2C[C@@H](OC(=O)[C@H](CO)c3ccccc3)C[C@H]1[C@@H]1O[C@@H]12 [Scopolamine hydrobromide],0.9969 ± 0.0054
27,CC(O)(CS(=O)(=O)c1ccc(F)cc1)C(=O)Nc1ccc(C#N)c(C(F)(F)F)c1 (stereo unspecified) [Bicalutamide (Casodex)],0.9981 ± 0.0033
28,C[N+]1(C)CCCC(OC(=O)C(O)(c2ccccc2)c2ccccc2)C1 (stereo unspecified) [Mepenzolate Bromide],0.9981 ± 0.0032
